In patent US9499466B2, “Diene-based carboxylate anion and salt thereof, and polymerizable or curable composition thereof” (NIPPON SHOKUBAI CO., LTD., priority 2010, dated 2016):

What was measured:
[1] = Radical (UV) curability test; conditions: UV passes (200 mJ/cm^2 each) until no finger mark; 3% 1-hydroxycyclohexyl phenyl ketone; in the atmosphere
[2] = Pencil hardness of cured material (JIS K 5600-4); conditions: UV-cured film on glass, 25 passes (5 J/cm^2), scratch hardness (pencil method)

For C=CCOCC(=C)C(=O)O.CCN(CC)CC [(C2H5)3NH(AMA)], which Number of posses [1] is on record?
Its Number of posses is 1.

With C=C(C)C(=O)[O-].C=CCOCC(=C)C(=O)[O-].[CH3][Sn+2][CH3] [(CH3)2Sn(AMA)1(MAA)1] as the molecule, how does the Number of posses [1] read?
The Number of posses was 6.

What does the source list for C=CCOCC(=C)C(=O)[O-].C=CCOCC(=C)C(=O)[O-].[CH3][Sn+2][CH3] [(CH3)2Sn(AMA)2]?
Pencil hardness Evaluation [2]: 3 H; Number of posses [1]: 5

Which results are given for C=CCOCC(=C)C(=O)[O-].C=CCOCC(=C)C(=O)[O-].CC(C)[O][Ti+2][O]C(C)C [(i-C3H7O)2Ti(AMA)2]?
Pencil hardness Evaluation [2]: 3 H; Number of posses [1]: 1

Which Number of posses [1] does the source give for C=CCOCC(=C)C(=O)[O-].C=CCOCC(=C)C(=O)[O-].CCC[O][Zr+2][O]CCC [(n-C3H7O)2Zr(AMA)2] here?
The Number of posses was 1.

For C=CCOCC(=C)C(=O)[O-].C=CCOCC(=C)C(=O)[O-].C=CCOCC(=C)C(=O)[O-].[Al+3] [Al(AMA)3], which “Pencil hardness Evaluation” value [2] is on record?
Its value is 9 H.

And the Number of posses [1]?
Its Number of posses is 1.

For C=CCOCC(=C)C(=O)[O-].C=CCOCC(=C)C(=O)[O-].C=CCOCC(=C)C(=O)[O-].[Au+3] [Au(AMA)3], which Number of posses [1] is on record?
Its Number of posses is 5.

Which “Pencil hardness Evaluation” value [2] does the source give for C=CCOCC(=C)C(=O)[O-].C=CCOCC(=C)C(=O)[O-].[Ba+2] [Ba(AMA)2] here?
Its value is 3 H.

What about the Number of posses [1] of the same molecule?
Its Number of posses is 1.

With C=CCOCC(=C)C(=O)[O-].C=CCOCC(=C)C(=O)[O-].C=CCOCC(=C)C(=O)[O-].[Bi+3] [Bi(AMA)3] as the molecule, how does the “Pencil hardness Evaluation” value [2] read?
The value was 3 H.

What about the Number of posses [1] of the same molecule?
The Number of posses was 1.

What does the source list for C=CCOCC(=C)C(=O)[O-].C=CCOCC(=C)C(=O)[O-].C=CCOCC(=C)C(=O)[O-].[Cr+3] [Cr(AMA)3]?
Pencil hardness Evaluation [2]: 7 H; Number of posses [1]: 2

Which Number of posses [1] does the source give for C=CC(=O)[O-].C=CCOCC(=C)C(=O)[O-].[Cu+2] [Cu(AMA)1(AA)1] here?
Its Number of posses is 2.

Which Number of posses [1] does the source give for C=CCOCC(=C)C(=O)[O-].C=CCOCC(=C)C(=O)[O-].[Cu+2] [Cu(AMA)2] here?
Its Number of posses is “X (A film whose surface still had a mark of the finger even after 25 passes was evaluated as “x”)”.

For C=CCOCC(=C)C(=O)OCCOCCOC(=O)C(=C)COCC=C [DEG-AMA, diethylene glycol di(α-allyloxymethyl acrylate), reference compound], which “Pencil hardness Evaluation” value [2] is on record?
Its value is 2 H.

What about the Number of posses [1] of the same molecule?
The Number of posses was 13.

What does the source list for C=CC(=O)OCCOCCOC(=O)C=C [DEGDA, reference compound]?
Pencil hardness Evaluation [2]: 2 H; Number of posses [1]: 14

Which “Pencil hardness Evaluation” value [2] does the source give for C=CCOCC(=C)C(=O)[O-].C=CCOCC(=C)C(=O)[O-].C=CCOCC(=C)C(=O)[O-].[Er+3] [Er(AMA)3] here?
The value was 9 H.

And the Number of posses [1]?
Its Number of posses is 1.

With C=CCOCC(=C)C(=O)[O-].C=CCOCC(=C)C(=O)[O-].C=CCOCC(=C)C(=O)[O-].[Eu+3] [Eu(AMA)3] as the molecule, how does the “Pencil hardness Evaluation” value [2] read?
Its value is 5 H.

What about the Number of posses [1] of the same molecule?
The Number of posses was 1.

For C=CC(=O)[O-].C=CCOCC(=C)C(=O)[O-].C=CCOCC(=C)C(=O)[O-].[Fe+3] [Fe(AMA)2(AA)1], which Number of posses [1] is on record?
The Number of posses was 6.

Which Number of posses [1] does the source give for C=CCOCC(=C)C(=O)[O-].C=CCOCC(=C)C(=O)[O-].C=CCOCC(=C)C(=O)[O-].[Fe+3] [Fe(AMA)3] here?
The Number of posses was “X (A film whose surface still had a mark of the finger even after 25 passes was evaluated as “x”)”.

What does the source list for C=C(C)C(=O)[O-].C=CCOCC(=C)C(=O)[O-].C=CCOCC(=C)C(=O)[O-].[In+3] [In(AMA)2(MAA)1]?
Pencil hardness Evaluation [2]: 5 H; Number of posses [1]: 1

What does the source list for C=CCOCC(=C)C(=O)[O-].C=CCOCC(=C)C(=O)[O-].C=CCOCC(=C)C(=O)[O-].[La+3] [La(AMA)3]?
Pencil hardness Evaluation [2]: 4 to 5 H; Number of posses [1]: 1

What does the source list for C=CCOCC(=C)C(=O)OCC(C)(C)COC(=O)C(=C)COCC=C [NPG-AMA, neopentyl glycol di(α-allyloxymethyl acrylate), reference compound]?
Pencil hardness Evaluation [2]: 2 H; Number of posses [1]: 21

Which “Pencil hardness Evaluation” value [2] does the source give for C=CC(=O)OCC(C)(C)COC(=O)C=C [NPGDA, reference compound] here?
The value was 3 H.

And the Number of posses [1]?
The Number of posses was 23.

For C=C(C)C(=O)[O-].C=CCOCC(=C)C(=O)[O-].[Ni+2] [Ni(AMA)1(MAA)1], which Number of posses [1] is on record?
Its Number of posses is 6.

With C=CC(=O)OCC(CC)(COC(=O)C=C)COC(=O)C=C [TMPTA, reference compound] as the molecule, how does the “Pencil hardness Evaluation” value [2] read?
Its value is 4 to 5 H.

And the Number of posses [1]?
The Number of posses was 8.

Which Number of posses [1] does the source give for C=CC(=O)[O-].C=CC(=O)[O-].[Zn+2] [Zn(AA)2, Zinc acrylate, reference compound] here?
The Number of posses was 1.

With C=CCOCC(=C)C(=O)[O-].C=CCOCC(=C)C(=O)[O-].[Zn+2] [Zn(AMA)2] as the molecule, how does the “Pencil hardness Evaluation” value [2] read?
The value was 5 H.

What about the Number of posses [1] of the same molecule?
Its Number of posses is 3.

Which “Pencil hardness Evaluation” value [2] does the source give for C=C(C)COCC(=C)C(=O)[O-].C=C(C)COCC(=C)C(=O)[O-].[Zn+2] [Zn(MAMA)2] here?
Its value is 5 H.

And the Number of posses [1]?
The Number of posses was 3.

For CCCCC(CC)C(=O)[O-].CCCCC(CC)C(=O)[O-].[Zn+2] (stereo not shown) [Zn(Oc)2, Zinc octoate, reference compound], which Number of posses [1] is on record?
Its Number of posses is “X (A film whose surface still had a mark of the finger even after 25 passes was evaluated as “x”)”.

For C=CC(=O)OCCC(=O)O.[Zr] [Zr(CEA)4, Zirconium carboxyethyl acrylate, reference compound], which “Pencil hardness Evaluation” value [2] is on record?
The value was 3 H.

And the Number of posses [1]?
The Number of posses was 1.

What does the source list for C=CCOCC(=C)C(=O)[O-].C=CCOCC(=C)C(=O)[O-].[O]=[Zr+2] [ZrO(AMA)2]?
Pencil hardness Evaluation [2]: 8 H; Number of posses [1]: 1

Some entries repeat one wording, which the source may state once for all of them.
